Measurements reported in PubChem BioAssay AID1259254 (NCATS, 2017).

Test: 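Gene knock-downs that lead to re-replication, shown by excess G2 DNA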 (primary screen)
Cells: human HCT116 colorectal cancer cells
Knock-down reagent: single siRNA against human genes
Timing: 3 days
Detection: 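Imaged Hoechst DNA stain sorts each cell into a cycle phase by DNA amount; per plate, G2 fraction set to 0% for non-targeting and 100% for GMNN siRNA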
Direction: G2 robust z-score and G2 cells, % of GMNN control: higher = more G2 cells, more excess DNA replication
Call rule: 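An siRNA counts as active if its G2 robust z-score lies at least 5 MADs above the screen median; here such calls match roughly 38% of GMNN control or more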
The deposit covers about 59,000 reagents; below is a part drawn at random. About 1,550 of them (2.6%) were called active. 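G2 share is only a proxy for re-replication; each gene was hit by three separate siRNAs, and active genes were retested.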 A number with no mark means an inactive call. Reagents against one gene are numbered here. Further read-outs or replicates are left out here. Reagent sequences are not shown. The record does not give: the amount of reagent.

TAMM41 #1 — G2 robust z-score = -0.838; G2 cells, % of GMNN control = -2.93
TAMM41 #2 — G2 robust z-score = 3.32; G2 cells, % of GMNN control = 26.4
TAMM41 #3 — G2 robust z-score = 0.16; G2 cells, % of GMNN control = 4.09
DHRS4L1 #1 — G2 robust z-score = -1.2; G2 cells, % of GMNN control = -5.5
DHRS4L1 #2 — G2 robust z-score = -0.0369; G2 cells, % of GMNN control = 2.71
DHRS4L1 #3 — G2 robust z-score = -0.548; G2 cells, % of GMNN control = -0.89
HIRA #1 — G2 robust z-score = -0.0658; G2 cells, % of GMNN control = 2.5
HIRA #2 — G2 robust z-score = 4.61; G2 cells, % of GMNN control = 35.4
HIRA #3 — G2 robust z-score = 1.06; G2 cells, % of GMNN control = 10.4
CD3G #1 — G2 robust z-score = -1.44; G2 cells, % of GMNN control = -7.18
CD3G #2 — G2 robust z-score = 1.86; G2 cells, % of GMNN control = 16
CD3G #3 — G2 robust z-score = -0.124; G2 cells, % of GMNN control = 2.1
NIPAL1 #1 — G2 robust z-score = -0.203; G2 cells, % of GMNN control = 1.54
NIPAL1 #2 — G2 robust z-score = 4.45; G2 cells, % of GMNN control = 34.3
NIPAL1 #3 — G2 robust z-score = -0.759; G2 cells, % of GMNN control = -2.37
ACAA1 #1 — G2 robust z-score = -0.389; G2 cells, % of GMNN control = 0.229
ACAA1 #2 — G2 robust z-score = -0.297; G2 cells, % of GMNN control = 0.875
ACAA1 #3 — G2 robust z-score = -0.663; G2 cells, % of GMNN control = -1.7
LOC646629 #1 — G2 robust z-score = 4.1; G2 cells, % of GMNN control = 31.8
LOC646629 #2 — G2 robust z-score = -0.679; G2 cells, % of GMNN control = -1.81
LOC646629 #3 — G2 robust z-score = -0.0477; G2 cells, % of GMNN control = 2.63
PRNP #1 — G2 robust z-score = -0.777; G2 cells, % of GMNN control = -2.5
PRNP #2 — G2 robust z-score = -0.534; G2 cells, % of GMNN control = -0.79
PRNP #3 — G2 robust z-score = -0.273; G2 cells, % of GMNN control = 1.05
